This assay has as its target Serine incorporator 5 (SERINC5) with a FLAG-tag (human) (UniProt Q86VE9). Description: affinity purification with mass spectrometry; Ser5-FLAG, Nef-HA and glycoGag-HA expressed in HEK293T cells; RIPA lysate incubated with anti-FLAG M2 magnetic beads or anti-HA Affinity Gel for 24 hours at 4 °C, washed with PBS five times, SDS-PAGE, Nano LC-MS/MS; 5 samples.

The chains behind the UniProt entries cited, without tags or fusion partners. Where a name states a change or a piece, a line headed by the entry shows the natural chain unless it says otherwise.
UniProt Q86VE9: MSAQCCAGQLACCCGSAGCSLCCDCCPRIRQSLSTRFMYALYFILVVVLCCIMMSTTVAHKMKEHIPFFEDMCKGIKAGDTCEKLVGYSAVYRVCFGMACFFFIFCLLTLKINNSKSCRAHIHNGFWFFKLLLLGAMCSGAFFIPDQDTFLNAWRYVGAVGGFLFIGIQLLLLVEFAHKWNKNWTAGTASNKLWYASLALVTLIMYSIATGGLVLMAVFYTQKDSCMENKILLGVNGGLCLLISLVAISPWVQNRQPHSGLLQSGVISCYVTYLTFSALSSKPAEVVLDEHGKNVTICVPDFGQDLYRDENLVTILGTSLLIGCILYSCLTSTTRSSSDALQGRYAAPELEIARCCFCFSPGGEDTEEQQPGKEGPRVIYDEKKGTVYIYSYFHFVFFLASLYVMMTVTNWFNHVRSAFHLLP
UniProt Q9Y6I9: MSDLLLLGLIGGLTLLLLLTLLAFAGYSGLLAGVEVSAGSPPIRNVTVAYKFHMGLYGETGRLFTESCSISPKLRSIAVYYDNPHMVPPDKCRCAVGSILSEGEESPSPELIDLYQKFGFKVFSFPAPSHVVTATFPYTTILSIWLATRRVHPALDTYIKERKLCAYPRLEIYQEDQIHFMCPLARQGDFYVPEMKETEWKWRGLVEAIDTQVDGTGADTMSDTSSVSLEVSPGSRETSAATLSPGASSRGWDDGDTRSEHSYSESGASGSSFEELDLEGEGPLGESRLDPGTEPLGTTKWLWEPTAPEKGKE

Results are given in words; binding and its absence hold for the method and conditions named. In cells and extracts the contact can be indirect. Here binding means that the protein was enriched with, or labelled near, the bait; the list need not be complete.

Regarding “TEX264, endogenous (from UniProt Q9Y6I9 1-313)”, the binding result was “binds”.

In the case of “RETREG3, endogenous (from UniProt Q86VR2-1 1-466)”, the binding entry is listed as “binds”.

B1: RETREG2, endogenous (protein, UniProt Q8NC44 1-543)
chain: MASGGGGGNTGAGGGPGMGLSLGLGLGLSLGMSEATSEAEEEAATAEAVGRLATTLWLRLRGWEAVLAAAQRLLVWEKPLHSLVTAAALNGLFWLLSSSSLRPFFLLSVSLLAYFLLDLWQPRFLPDVSASSPEEPHSDSEGAGSGARPHLLSVPELCRYLAESWLTFQIHLQELLQYKRQNPAQFCVRVCSGCAVLAVLGHYVPGIMISYIVLLSILLWPLVVYHELIQRMYTRLEPLLMQLDYSMKAEANALHHKHDKRKRQGKNAPPGGDEPLAETESESEAELAGFSPVVDVKKTALALAITDSELSDEEASILESGGFSVSRATTPQLTDVSEDLDQQSLPSEPEETLSRDLGEGEEGELAPPEDLLGRPQALSRQALDSEEEEEDVAAKETLLRLSSPLHFVNTHFNGAGSPPDGVKCSPGGPVETLSPETVSGGLTALPGTLSPPLCLVGSDPAPSPSILPPVPQDSPQPLPAPEEEEALTTEDFELLDQGELEQLNAELGLEPETPPKPPDAPPLGPDIHSLVQSDQEAQAVAEP
Consider B1, for which the binding result is on record as “binds”.

B2: ATL3, endogenous (protein, UniProt Q6DD88 1-541)
chain: MLSPQRVAAAASRGADDAMESSKPGPVQVVLVQKDQHSFELDEKALASILLQDHIRDLDVVVVSVAGAFRKGKSFILDFMLRYLYSQKESGHSNWLGDPEEPLTGFSWRGGSDPETTGIQIWSEVFTVEKPGGKKVAVVLMDTQGAFDSQSTVKDCATIFALSTMTSSVQIYNLSQNIQEDDLQQLQLFTEYGRLAMDEIFQKPFQTLMFLVRDWSFPYEYSYGLQGGMAFLDKRLQVKEHQHEEIQNVRNHIHSCFSDVTCFLLPHPGLQVATSPDFDGKLKDIAGEFKEQLQALIPYVLNPSKLMEKEINGSKVTCRGLLEYFKAYIKIYQGEDLPHPKSMLQATAEANNLAAAASAKDIYYNNMEEVCGGEKPYLSPDILEEKHCEFKQLALDHFKKTKKMGGKDFSFRYQQELEEEIKELYENFCKHNGSKNVFSTFRTPAVLFTGIVALYIASGLTGFIGLEVVAQLFNCMVGLLLIALLTWGYIRYSGQYRELGGAIDFGAAYVLEQASSHIGNSTQATVRDAVVGRPSMDKKAQ
As to B2, the binding result was “binds”.

The record behind these values is publication doi:10.1101/2025.03.06.641798.
